Results are given in words; binding and its absence hold for the method and conditions named. Binding seen in cells or lysates may run through a third protein. Here binding means that the protein was enriched with, or labelled near, the bait; the list need not be complete. Where a sequence is shown, tags or fusion partners need not be part of it. Blank lines part the entries; values can stand above or below the molecule they belong to.
Biological target: T1, DRB1 tagged with HA epitope (pDRB1:DRB1:HA) (Arabidopsis thaliana) (UniProt O04492)
T1 sequence: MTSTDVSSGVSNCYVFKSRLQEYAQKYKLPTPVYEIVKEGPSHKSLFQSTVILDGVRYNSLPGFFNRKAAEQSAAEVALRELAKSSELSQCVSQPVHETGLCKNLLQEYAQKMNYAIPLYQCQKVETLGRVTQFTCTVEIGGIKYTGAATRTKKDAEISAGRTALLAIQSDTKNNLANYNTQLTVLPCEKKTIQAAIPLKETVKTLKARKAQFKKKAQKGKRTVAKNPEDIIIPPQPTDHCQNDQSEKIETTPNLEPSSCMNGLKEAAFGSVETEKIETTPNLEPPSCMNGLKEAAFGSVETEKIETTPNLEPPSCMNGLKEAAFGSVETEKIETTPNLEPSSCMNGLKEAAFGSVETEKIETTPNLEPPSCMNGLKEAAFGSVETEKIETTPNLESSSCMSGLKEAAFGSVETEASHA
Experiment: affinity purification with mass spectrometry

- binding: binds
Molecule: KETCH1 (from UniProt F4K2M5)

- binding: binds
B1: CDC5 (protein, UniProt P92948 1-844)
chain: MRIMIKGGVWKNTEDEILKAAVMKYGKNQWARISSLLVRKSAKQCKARWYEWLDPSIKKTEWTREEDEKLLHLAKLLPTQWRTIAPIVGRTPSQCLERYEKLLDAACTKDENYDAADDPRKLRPGEIDPNPEAKPARPDPVDMDEDEKEMLSEARARLANTRGKKAKRKAREKQLEEARRLASLQKRRELKAAGIDGRHRKRKRKGIDYNAEIPFEKRAPAGFYDTADEDRPADQVKFPTTIEELEGKRRADVEAHLRKQDVARNKIAQRQDAPAAILQANKLNDPEVVRKRSKLMLPPPQISDHELEEIAKMGYASDLLAENEELTEGSAATRALLANYSQTPRQGMTPMRTPQRTPAGKGDAIMMEAENLARLRDSQTPLLGGENPELHPSDFTGVTPRKKEIQTPNPMLTPSMTPGGAGLTPRIGLTPSRDGSSFSMTPKGTPFRDELHINEDMDMHESAKLERQRREEARRSLRSGLTGLPQPKNEYQIVAQPPPEESEEPEEKIEEDMSDRIAREKAEEEARQQALLKKRSKVLQRDLPRPPAASLAVIRNSLLSADGDKSSVVPPTPIEVADKMVREELLQLLEHDNAKYPLDDKAEKKKGAKNRTNRSASQVLAIDDFDENELQEADKMIKEEGKFLCVSMGHENKTLDDFVEAHNTCVNDLMYFPTRSAYELSSVAGNADKVAAFQEEMENVRKKMEEDEKKAEHMKAKYKTYTKGHERRAETVWTQIEATLKQAEIGGTEVECFKALKRQEEMAASFRKKNLQEEVIKQKETESKLQTRYGNMLAMVEKAEEIMVGFRAQALKKQEDVEDSHKLKEAKLATGEEEDIAIAMEASA
